Assay results published in paper PMC4305328.

Target: T1, Fkh2-6Myc (C. albicans) (UniProt Q5A7S7)
T1 sequence: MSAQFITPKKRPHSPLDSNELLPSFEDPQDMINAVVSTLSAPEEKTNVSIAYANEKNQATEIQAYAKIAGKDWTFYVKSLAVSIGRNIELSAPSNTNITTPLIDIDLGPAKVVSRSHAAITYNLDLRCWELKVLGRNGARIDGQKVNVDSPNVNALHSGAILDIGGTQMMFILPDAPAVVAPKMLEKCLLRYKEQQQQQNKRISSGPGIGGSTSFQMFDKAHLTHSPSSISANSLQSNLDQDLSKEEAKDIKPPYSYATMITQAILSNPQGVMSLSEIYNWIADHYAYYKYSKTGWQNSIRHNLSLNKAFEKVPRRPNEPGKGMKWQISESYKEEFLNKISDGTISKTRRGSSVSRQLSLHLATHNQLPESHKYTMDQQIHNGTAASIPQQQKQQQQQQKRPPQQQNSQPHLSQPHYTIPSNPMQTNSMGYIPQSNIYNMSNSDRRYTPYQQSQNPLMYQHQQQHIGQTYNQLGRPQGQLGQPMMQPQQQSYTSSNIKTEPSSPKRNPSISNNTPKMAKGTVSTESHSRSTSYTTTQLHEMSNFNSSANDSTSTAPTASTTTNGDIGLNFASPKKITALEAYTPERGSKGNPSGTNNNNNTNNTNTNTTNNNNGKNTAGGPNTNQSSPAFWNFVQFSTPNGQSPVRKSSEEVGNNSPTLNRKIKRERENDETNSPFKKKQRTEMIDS
Assay: affinity purification with mass spectrometry; Fkh2-6Myc immuno-purified from approximately 1 g of total cell lysate (early upon hyphal induction) with Ez-view agarose, washed four times with cold lysis buffer, SDS-PAGE, Coomassie-stained bands identified by MS

B1: Pob3 (Candida orthologue of ScPob3) (protein, UniProt Q5ALL8 1-538)
chain: MVNTDFEKIYLNQSRAGGRMRIAESGLGWKASASSGSTSQPFLLPREEILIASWSRGSKGYELRVQTKNKGVVSLDGFDHDDFTQLKQELTRNFHINLEHREHSLRGWNWGKTDLARNELIFNVNNKPAFEIPYSDISNSNLTGKNEVALEFNLDNNKNGDEIVEMRFYVPGTIENETTIVKNETNGDVIEEAVVNETSAAQQFYEQLKDKADIGQVAGEAIVSFSDVLFLTPRGRYDIDMYPSSLRLRGKTYDYKIQYEQIERIFSLPKPDETHHLIVLQIDPPLRQGQTRYPFLVLQFVKDEETELELNVSDEDFEKKYKDRLKKTYDAPTNVVMSHCLRGLTERKLITPGAFQSRYLQAGVPCSVKASEGYLFPLDRCFLFVTKPTLYIPYSEISSVVMSRTGGGVSASRTFDLEVNVIGSNQPHVFSNIDREEQEFIESFCKEKGVKVKNEEKIAKARLAKALEQEANDDDDEDADMGSAGDEDEDEDVDFQSGSDSDVAEEFDSDAAPSSDDDEEMADSKETDDRPPKKKAKN
How did the binding turn out when B1 was run?
Its binding is “binds”.

Results are given in words; binding and its absence hold for the method and conditions named. Binding seen in cells or lysates may run through a third protein. These calls come from enrichment with a bait or labelling near it, and not all partners need be listed. Tags and fused reporters may be left off the sequences shown.
